Record: PubChem BioAssay AID1259254 (NCATS, 2017)
This is one part, drawn at random, of about 59,000 reagents tested. In the full data, about 1,550 (2.6%) got an active call. 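G2 share is only a proxy for re-replication; each gene was hit by three separate siRNAs, and active genes were retested.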 Unmarked entries are inactive. The numbers tell different reagents against one gene apart. Further read-outs or replicates are left out here. Not given: the amount of reagent.

- Purpose: 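Genome-wide screen for genes that prevent DNA re-replication in cancer cells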 (primary screen)
- Cells: human HCT116 colorectal cancer cells
- Knock-down reagent: single siRNA against human genes
- Timing: 3 days
- Measurement: 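Imaged Hoechst DNA stain sorts each cell into a cycle phase by DNA amount; per plate, G2 fraction set to 0% for non-targeting and 100% for GMNN siRNA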
- Reading the numbers: G2 robust z-score and G2 cells, % of GMNN control: higher = more G2 cells, more excess DNA replication
- Rule for the call: 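An siRNA counts as active if its G2 robust z-score lies at least 5 MADs above the screen median; here such calls match roughly 38% of GMNN control or more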

| gene | siRNA no. | G2 robust z-score | G2 cells, % of GMNN control |
| --- | --- | --- | --- |
| STT3B (GeneID 201595) | 1 | -0.89 | -3.3 |
| STT3B (GeneID 201595) | 2 | 3.84 | 30 |
| STT3B (GeneID 201595) | 3 | 1.04 | 10.3 |
| ERMN (GeneID 57471) | 1 | -0.523 | -0.712 |
| ERMN (GeneID 57471) | 2 | 0.795 | 8.56 |
| ERMN (GeneID 57471) | 3 | 0.306 | 5.12 |
| ZNF271P (GeneID 10778) | 1 | -0.577 | -1.09 |
| ZNF271P (GeneID 10778) | 2 | -1.34 | -6.45 |
| ZNF271P (GeneID 10778) | 3 | -0.471 | -0.346 |
| KIF5A (GeneID 3798) | 1 | -0.51 | -0.619 |
| KIF5A (GeneID 3798) | 2 | 0.128 | 3.87 |
| KIF5A (GeneID 3798) | 3 | 0.632 | 7.41 |
| MIR9-2HG (GeneID 645323) | 1 | -1.09 | -4.73 |
| MIR9-2HG (GeneID 645323) | 2 | -0.296 | 0.885 |
| MIR9-2HG (GeneID 645323) | 3 | 2.01 | 17.1 |
| PTMS (GeneID 5763) | 1 | -0.472 | -0.352 |
| PTMS (GeneID 5763) | 2 | -0.0849 | 2.37 |
| PTMS (GeneID 5763) | 3 | 2.53 | 20.8 |
| ARHGAP36 (GeneID 158763) | 1 | -0.647 | -1.58 |
| ARHGAP36 (GeneID 158763) | 2 | -0.066 | 2.5 |
| ARHGAP36 (GeneID 158763) | 3 | -0.401 | 0.145 |
| DDR1 (GeneID 780) | 1 | -1.9 | -10.4 |
| DDR1 (GeneID 780) | 2 | 6.96 (active) | 51.9 |
| DDR1 (GeneID 780) | 3 | -0.921 | -3.51 |
| HLA-DQB1 (GeneID 3119) | 1 | 5.58 (active) | 42.2 |
| HLA-DQB1 (GeneID 3119) | 2 | 1.03 | 10.2 |
| HLA-DQB1 (GeneID 3119) | 3 | 3.48 | 27.4 |
| STRADBP1 (GeneID 389599) | 1 | -0.181 | 1.7 |
| STRADBP1 (GeneID 389599) | 2 | 0.278 | 4.92 |
| STRADBP1 (GeneID 389599) | 3 | -0.552 | -0.915 |
| TBX5 (GeneID 6910) | 1 | -0.141 | 1.97 |
| TBX5 (GeneID 6910) | 2 | 0.329 | 5.29 |
| TBX5 (GeneID 6910) | 3 | 0.158 | 4.08 |
| PTX3 (GeneID 5806) | 1 | -0.239 | 1.29 |
| PTX3 (GeneID 5806) | 2 | -0.279 | 1.01 |
| PTX3 (GeneID 5806) | 3 | -0.459 | -0.259 |
| TRPC4AP (GeneID 26133) | 1 | 2.02 | 17.2 |
| TRPC4AP (GeneID 26133) | 2 | 5.68 (active) | 42.9 |
| TRPC4AP (GeneID 26133) | 3 | -1.11 | -4.86 |
| IL21 (GeneID 59067) | 1 | 2.52 | 20.7 |
| IL21 (GeneID 59067) | 2 | 3.57 | 28.1 |
| IL21 (GeneID 59067) | 3 | -0.245 | 1.24 |
| NOPCHAP1 (GeneID 121053) | 1 | -0.45 | -0.197 |
| NOPCHAP1 (GeneID 121053) | 2 | -0.673 | -1.77 |
| NOPCHAP1 (GeneID 121053) | 3 | 0.878 | 9.14 |
| UBTD1 (GeneID 80019) | 1 | 1.42 | 12.9 |
| UBTD1 (GeneID 80019) | 2 | 1.72 | 15.1 |
| UBTD1 (GeneID 80019) | 3 | -0.832 | -2.89 |
| CASD1 (GeneID 64921) | 1 | 3.14 | 25 |
| CASD1 (GeneID 64921) | 2 | -0.322 | 0.699 |
| CASD1 (GeneID 64921) | 3 | -1.05 | -4.42 |
| RASAL1 (GeneID 8437) | 1 | -1.29 | -6.1 |
| RASAL1 (GeneID 8437) | 2 | -0.545 | -0.868 |
| RASAL1 (GeneID 8437) | 3 | -0.913 | -3.46 |
| ACAD9 (GeneID 28976) | 1 | -0.0343 | 2.73 |
| ACAD9 (GeneID 28976) | 2 | -0.794 | -2.62 |
| ACAD9 (GeneID 28976) | 3 | -0.715 | -2.06 |
| ARHGAP6 (GeneID 395) | 1 | -0.515 | -0.653 |
| ARHGAP6 (GeneID 395) | 2 | 0.906 | 9.34 |
| ARHGAP6 (GeneID 395) | 3 | -0.395 | 0.189 |
| NPY1R (GeneID 4886) | 1 | -0.0999 | 2.26 |
| NPY1R (GeneID 4886) | 2 | -0.157 | 1.86 |
| NPY1R (GeneID 4886) | 3 | -0.168 | 1.79 |
| CD3D (GeneID 915) | 1 | -0.872 | -3.17 |
| CD3D (GeneID 915) | 2 | -0.89 | -3.29 |
| CD3D (GeneID 915) | 3 | -0.105 | 2.23 |
| TSKU (GeneID 25987) | 1 | 1.64 | 14.5 |
| TSKU (GeneID 25987) | 2 | 2.79 | 22.6 |
| TSKU (GeneID 25987) | 3 | -1.39 | -6.83 |

Looked up above:
Result for CD3D (GeneID 915) #3 in “G2 robust z-score”: -0.105
Under “G2 cells, % of GMNN control”, ARHGAP36 (GeneID 158763) #1 reads -1.58
Entry of NPY1R (GeneID 4886) #3 in “G2 cells, % of GMNN control”: 1.79
Under “G2 robust z-score”, TBX5 (GeneID 6910) #1 reads -0.141
NOPCHAP1 (GeneID 121053) #3, G2 robust z-score: 0.878
Under “G2 cells, % of GMNN control”, STRADBP1 (GeneID 389599) #1 has 1.7
